{
  "sequences": {"note": "Sequences of proteins named here, by UniProt entry; tags and fusion partners are left off.", "UniProt Q0JBA9, entry or part of it": "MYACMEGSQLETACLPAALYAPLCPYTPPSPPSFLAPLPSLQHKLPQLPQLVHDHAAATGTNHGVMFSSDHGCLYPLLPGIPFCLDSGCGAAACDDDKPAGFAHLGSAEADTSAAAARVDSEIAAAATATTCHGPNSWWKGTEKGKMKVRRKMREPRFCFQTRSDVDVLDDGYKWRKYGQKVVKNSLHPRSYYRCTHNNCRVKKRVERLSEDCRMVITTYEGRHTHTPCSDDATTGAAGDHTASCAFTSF"},
  "source": "paper PMC7819943",
  "about": "“Rice protein-binding microarrays: a tool to detect cis-acting elements near promoter regions in rice”",
  "note": "This is one part of the list.",
  "data": [
    {"target": "OsWRKY34 (Oryza sativa, UniProt Q0JBA9 1-250)", "assay": "protein-binding microarray (RPBM); PBS, 2% BSA, 51.3 ng/ul salmon testes DNA, 50 uM zinc acetate, 200 nM TF, 25 C, 1 h; high values mean tight binding", "settings": "protein: recombinant; tags: N-terminal polyhistidine and DsRed monomer fusion (pET32a); label: CyDye5-dUTP incorporated in the synthesized complementary strand; 3' TTTTT single-stranded linker to array surface; dsDNA, one strand shown", "how_it_was_run": "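Binding signal here means per-feature fluorescence intensity in arbitrary units. The values were read on an Axon 4000B scanner after a custom Agilent array, double-stranded by primer extension with Cy5-dUTP, was incubated with 200 nM protein at 25 °C for 1 h in PBS with 2% BSA, salmon testes DNA and 50 µM zinc acetate, then washed. The proteins were transcription factors with an N-terminal polyhistidine tag and DsRed, expressed in E. coli BL21-CodonPlus and purified on Ni–NTA.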", "values": [
      {"sequence": "ATCACCACCACCACCACCACCCGCACGCGCGCCGCAACAACGGAGTCACCTAGTGCAG", "binding signal": "9580 fluorescence intensity (a.u.)"},
      {"sequence": "TATGTGCTCTTTCTATTCTTTCATTTTTTATTTCATTATTCGGAGTCACCTAGTGCAG", "binding signal": "9290 fluorescence intensity (a.u.)"},
      {"sequence": "TGTATTTCAATCGGTTTTAAATTCGTTCGCTTTTGGAAATCGGAGTCACCTAGTGCAG", "binding signal": "8480 fluorescence intensity (a.u.)"},
      {"sequence": "ATGTTGTGACACGCTATATATTTTTCTTGTTCATATTCAACGGAGTCACCTAGTGCAG", "binding signal": "8190 fluorescence intensity (a.u.)"},
      {"sequence": "TTGTGGTTATAGGGCTTGTTTGGTTCTTTACCCTACCAATCGGAGTCACCTAGTGCAG", "binding signal": "8490 fluorescence intensity (a.u.)"},
      {"sequence": "ACACCTCTATTTTTTATATAATGTTTGTTTGCATTGTACACGGAGTCACCTAGTGCAG", "binding signal": "11700 fluorescence intensity (a.u.)"},
      {"sequence": "TACCTCCGTTTTTTAATAGATGACGCCGTTGACTTTTTCTCGGAGTCACCTAGTGCAG", "binding signal": "25000 fluorescence intensity (a.u.)"},
      {"sequence": "CATCTCCATCTACATATACGGCCGCTTCCAACTGCAATCTCGGAGTCACCTAGTGCAG", "binding signal": "10400 fluorescence intensity (a.u.)"},
      {"sequence": "CCTCCCCTCCGTCAGATCCGGGGAGGGGCGGCCGCGGAGGCGGAGTCACCTAGTGCAG", "binding signal": "8110 fluorescence intensity (a.u.)"},
      {"sequence": "CACTCCATATGACAAATGCATGCCTCTCTCACTTCTTCCCCGGAGTCACCTAGTGCAG", "binding signal": "8580 fluorescence intensity (a.u.)"},
      {"sequence": "AATAGTATTTCCGTTTGTTGTTGAAAATATTGTTTTGTTTCGGAGTCACCTAGTGCAG", "binding signal": "10900 fluorescence intensity (a.u.)"},
      {"sequence": "CGCTGACGACCGCCGGCGCGCCGTTCCACCTCGCCGCCGGCGGAGTCACCTAGTGCAG", "binding signal": "10500 fluorescence intensity (a.u.)"},
      {"sequence": "AACACCGGCGCCTGCCGACCACCCGCCGCCGCTCTTATCACGGAGTCACCTAGTGCAG", "binding signal": "13700 fluorescence intensity (a.u.)"},
      {"sequence": "GCGCACCACCACCACCCAACCCCAAGTCCATCCACGGTTTCGGAGTCACCTAGTGCAG", "binding signal": "12800 fluorescence intensity (a.u.)"},
      {"sequence": "CTGATCGAATACTCTAGCATTGCGATCTTTCCAAATTTGCCGGAGTCACCTAGTGCAG", "binding signal": "8510 fluorescence intensity (a.u.)"},
      {"sequence": "ACATGTAAACTGTGCAATTGATTTTTTTTGTCCACATTTACGGAGTCACCTAGTGCAG", "binding signal": "10400 fluorescence intensity (a.u.)"},
      {"sequence": "TGCTTTTTTTTTCTAATCTGGCTTTGTTAAGTTTGACTAACGGAGTCACCTAGTGCAG", "binding signal": "10200 fluorescence intensity (a.u.)"},
      {"sequence": "TGGGATGGAGAGAGTAGGTTATAGCAACATGAGTTTGTGACGGAGTCACCTAGTGCAG", "binding signal": "9660 fluorescence intensity (a.u.)"},
      {"sequence": "CGAGTCCACTCCTCGTCGCACGCCTGCCTGCGTCACCACCCGGAGTCACCTAGTGCAG", "binding signal": "8440 fluorescence intensity (a.u.)"},
      {"sequence": "GTTTCGCGCTCGTGGTTTCTTACTTGACGCACGTGCAATCCGGAGTCACCTAGTGCAG", "binding signal": "10800 fluorescence intensity (a.u.)"},
      {"sequence": "GCGACTCTGCCTCCTATACGGTCATAGTCCATGCAGTACCCGGAGTCACCTAGTGCAG", "binding signal": "9520 fluorescence intensity (a.u.)"},
      {"sequence": "TAGGTAGTGTTTGGTTGCAAGGATGGGATAGAATGGGATGCGGAGTCACCTAGTGCAG", "binding signal": "8230 fluorescence intensity (a.u.)"},
      {"sequence": "TACATCATCTAGTGTTGCAGCAGCAGTGTGTGTAAGAGGACGGAGTCACCTAGTGCAG", "binding signal": "28500 fluorescence intensity (a.u.)"},
      {"sequence": "GATCATCGTCCTATTTGGCTTTCGGCGGCCAGCCCGCCTCCGGAGTCACCTAGTGCAG", "binding signal": "8940 fluorescence intensity (a.u.)"},
      {"sequence": "TTATTTTATGTCGGTCTTATGTGTCGTGATGTATTTAACACGGAGTCACCTAGTGCAG", "binding signal": "9330 fluorescence intensity (a.u.)"},
      {"sequence": "CCCCTAGCGCCCCGGAAGCCTCATCTCCTCCTCCCGCGCCCGGAGTCACCTAGTGCAG", "binding signal": "8620 fluorescence intensity (a.u.)"},
      {"sequence": "TGTCCGTCACGAAATCTCCAATCGCGTCATCAGCTATACCCGGAGTCACCTAGTGCAG", "binding signal": "10100 fluorescence intensity (a.u.)"},
      {"sequence": "TTTCACCGTCTCGTTCAATCGATCGTAACCGAAACCGCATCGGAGTCACCTAGTGCAG", "binding signal": "9510 fluorescence intensity (a.u.)"},
      {"sequence": "ACCCAAAGGGTGCTAATTGGGGCTATTTTTGGTGGGGCTCCGGAGTCACCTAGTGCAG", "binding signal": "9270 fluorescence intensity (a.u.)"},
      {"sequence": "CTGGGCGATCTCTCTCTTCCTAATCATAGATCTCAACATACGGAGTCACCTAGTGCAG", "binding signal": "8210 fluorescence intensity (a.u.)"},
      {"sequence": "TTTAGGGGTACATATTTCTGGTGTTGTGGTTAAGGGATCTCGGAGTCACCTAGTGCAG", "binding signal": "10100 fluorescence intensity (a.u.)"},
      {"sequence": "TAGTCGATGGGCTGGATGTGGGACTGAGCGTTGGGCCGGGCGGAGTCACCTAGTGCAG", "binding signal": "8800 fluorescence intensity (a.u.)"},
      {"sequence": "GGGTGTCACGTTGTCATGTTATGTTTTTGTTCTGGAGATTCGGAGTCACCTAGTGCAG", "binding signal": "13500 fluorescence intensity (a.u.)"},
      {"sequence": "CAACGTCTCCACCTTTTCGGCCGCGGCTTCCGCCGGAAGCCGGAGTCACCTAGTGCAG", "binding signal": "9890 fluorescence intensity (a.u.)"},
      {"sequence": "ACACCCGCTCTCCTCCACCACACGCCGCCCAATCACCACCCGGAGTCACCTAGTGCAG", "binding signal": "11300 fluorescence intensity (a.u.)"},
      {"sequence": "CATTTTTCATATGTTGTATCCAGTAGCTATATTAGTACTACGGAGTCACCTAGTGCAG", "binding signal": "9930 fluorescence intensity (a.u.)"},
      {"sequence": "TCGCCGCTTTCCCTTTCTCCCCTGCGCTCTCACGTCAAACCGGAGTCACCTAGTGCAG", "binding signal": "8970 fluorescence intensity (a.u.)"},
      {"sequence": "AACTTCCAACTTTTCCGTCACATCGTTCCAATTTCAATCACGGAGTCACCTAGTGCAG", "binding signal": "9070 fluorescence intensity (a.u.)"},
      {"sequence": "ACAGATCAGGTTGTGTTTCTTGGTTTTGTTGTTTCAGGTTCGGAGTCACCTAGTGCAG", "binding signal": "8480 fluorescence intensity (a.u.)"},
      {"sequence": "TGCTCATCCTCGACCTCCACTCCCGATGGGGCAACCGGTACGGAGTCACCTAGTGCAG", "binding signal": "8140 fluorescence intensity (a.u.)"},
      {"sequence": "ATTTTCATTTCTTCTTCTTGCTTATGTAAAGTAGCAGTTGCGGAGTCACCTAGTGCAG", "binding signal": "8160 fluorescence intensity (a.u.)"},
      {"sequence": "TCTGCTTTTATTCATCGGTTTCATTAATTGTTTCTGTTACCGGAGTCACCTAGTGCAG", "binding signal": "17200 fluorescence intensity (a.u.)"}
    ]}
  ]
}
